Experimental findings from PMC7819943, “Rice protein-binding microarrays: a tool to detect cis-acting elements near promoter regions in rice” are described below.

The list shows a part of the results.

In this assay the target is T1, OsSMF1 (Oryza sativa, UniProt Q6ZLB0 1-436).
T1 sequence: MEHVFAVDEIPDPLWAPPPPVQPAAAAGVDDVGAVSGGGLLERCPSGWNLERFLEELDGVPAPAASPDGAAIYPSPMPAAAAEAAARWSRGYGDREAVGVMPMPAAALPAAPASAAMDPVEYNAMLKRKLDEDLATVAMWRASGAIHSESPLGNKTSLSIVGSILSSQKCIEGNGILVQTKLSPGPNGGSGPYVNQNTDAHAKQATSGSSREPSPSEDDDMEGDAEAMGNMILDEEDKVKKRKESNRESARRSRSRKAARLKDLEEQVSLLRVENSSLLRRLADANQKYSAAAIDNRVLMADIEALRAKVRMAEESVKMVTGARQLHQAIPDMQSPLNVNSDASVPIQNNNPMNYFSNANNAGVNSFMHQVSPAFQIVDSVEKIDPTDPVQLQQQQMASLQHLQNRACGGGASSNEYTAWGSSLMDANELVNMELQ
In words: protein-binding microarray (RPBM); PBS, 2% BSA, 51.3 ng/ul salmon testes DNA, 50 uM zinc acetate, 200 nM TF, 25 C, 1 h; high values mean tight binding. The conditions noted are these: protein: recombinant; tags: N-terminal polyhistidine and DsRed monomer fusion (pET32a); chain copies: 2; label: CyDye5-dUTP incorporated in the synthesized complementary strand; 3' TTTTT single-stranded linker to array surface; dsDNA, one strand shown. In short, it runs like this: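 Binding signal here means per-feature fluorescence intensity in arbitrary units. The values were read on an Axon 4000B scanner after a custom Agilent array, double-stranded by primer extension with Cy5-dUTP, was incubated with 200 nM protein at 25 °C for 1 h in PBS with 2% BSA, salmon testes DNA and 50 µM zinc acetate, then washed. The proteins were transcription factors with an N-terminal polyhistidine tag and DsRed, expressed in E. coli BL21-CodonPlus and purified on Ni–NTA.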
“TCCCTTCGTCGTTCCGTCTGCCACGTACACCTTCCATCTACGGAGTCACCTAGTGCAG”: the binding signal is 10800 fluorescence intensity (a.u.).

As for “AGAGGGGAGGAAGAAGGAAGGAGAGATGGGTCCGACATGTCGGAGTCACCTAGTGCAG”, the binding signal was 26900 fluorescence intensity (a.u.).

As for “TGGCTTAGTGCTGGCGTGCTGCTACTTGTGTACTCCCTCCCGGAGTCACCTAGTGCAG”, the binding signal was 3910 fluorescence intensity (a.u.).

With “AATCGCCGGCCCACAGAAAACAGCGAATCACGCGACGCGACGGAGTCACCTAGTGCAG”, the binding signal is 11900 fluorescence intensity (a.u.).

For the sequence “GAGCTTCACTCCTTGGCGTTGGTGGCCATCACTGAGCTTACGGAGTCACCTAGTGCAG”, the binding signal was 3480 fluorescence intensity (a.u.).

For the sequence “TTGGAGTTGTAGAGGAGGAGGAGGTGGTGGTGGAGGTGGTCGGAGTCACCTAGTGCAG”, the binding signal is 3600 fluorescence intensity (a.u.).

“CATGTAAGCCACATTGTATGCTTTAGCCACATTGATGTTGCGGAGTCACCTAGTGCAG”: the binding signal was 3500 fluorescence intensity (a.u.).

Consider “TGTCAAATTTTATAGCGTGCCACATGCAAGTCGATTATCTCGGAGTCACCTAGTGCAG”, for which the binding signal was 3250 fluorescence intensity (a.u.).

Turning to “GTGGGAGACGTGGCCGCGTGCTGTCCCCGGGTTTACGAACCGGAGTCACCTAGTGCAG”, the binding signal was 5140 fluorescence intensity (a.u.).

On to “TTTCAGAGTTTGAAGTTGGAAATCAACCTTGTTGTTCTCTCGGAGTCACCTAGTGCAG”, for which the binding signal is 63100 fluorescence intensity (a.u.).

For “TTCGATGTGGCAGCTGACTCAGCGTGGGACCCACGCGTCACGGAGTCACCTAGTGCAG”, the binding signal is 7730 fluorescence intensity (a.u.).

In the case of “GCCGACGCCGTCGAGGTGACGTCGGCCGAGGAGGCGGCGGCGGAGTCACCTAGTGCAG”, the binding signal is 4170 fluorescence intensity (a.u.).

Take “GAAGGAGAAGGAGAGGGGAGGGGCTGACGGGTGGGGTCCACGGAGTCACCTAGTGCAG”: the binding signal was 4800 fluorescence intensity (a.u.).

As for “CAGATGAACCATGTGTGCCCCATGTGAGCTGTGTGTGCATCGGAGTCACCTAGTGCAG”, the binding signal was 3340 fluorescence intensity (a.u.).

On to “CAACAACCTTGCTACTTGTACAGTCACCGTCAGGTGGGCCCGGAGTCACCTAGTGCAG”, for which the binding signal was 9910 fluorescence intensity (a.u.).

Take “ATTAAGCTGATTTGTTGCTAAAGAATCAGAAAGATTCATACGGAGTCACCTAGTGCAG”: the binding signal is 3190 fluorescence intensity (a.u.).

Consider “TGCGTGTACCTCCGCGGGACATCACGTGGGCCTCGTGGGCCGGAGTCACCTAGTGCAG”, for which the binding signal is 3690 fluorescence intensity (a.u.).

For the sequence “CACTTCAATTTGTGCACCATGCATGACACTCAGATTATTCCGGAGTCACCTAGTGCAG”, the binding signal was 3310 fluorescence intensity (a.u.).

Turning to “TCCTCCTCCTCCTGCTGGCCTGTCCGCCACGTCGCCGTCGCGGAGTCACCTAGTGCAG”, the binding signal is 8500 fluorescence intensity (a.u.).

As for “ATGTTGCACTGCTGTTGATCCCGTGACCGGCCGTATGCCACGGAGTCACCTAGTGCAG”, the binding signal was 3430 fluorescence intensity (a.u.).

Consider “TTCACCCCTCGATTCGACCAATTCGAGTTGCTCGATTCCACGGAGTCACCTAGTGCAG”, for which the binding signal is 9210 fluorescence intensity (a.u.).

As to “ATGGAGGCTGCGGTCGGCTGGGCACGTGGTTGTCGTAGGGCGGAGTCACCTAGTGCAG”, the binding signal is 3600 fluorescence intensity (a.u.).

Regarding “TGCGCCGCGCAGGCGTTTGGCCCTCATCGTGTCGATGCGTCGGAGTCACCTAGTGCAG”, the binding signal was 3340 fluorescence intensity (a.u.).

For “AAATTAGCAAATACTTAATTAATTATGCGCTAATGAACCGCGGAGTCACCTAGTGCAG”, the binding signal is 31200 fluorescence intensity (a.u.).

On to “CCCGGCGCCCGCAGCCGCAAGCGCATCGCCAACGCCGTGCCGGAGTCACCTAGTGCAG”, for which the binding signal was 3610 fluorescence intensity (a.u.).

For “CCGTAATGAAGGCCGCTCATTATCGAAGCTGATATATACACGGAGTCACCTAGTGCAG”, the binding signal was 24700 fluorescence intensity (a.u.).

Regarding “ACCGCCTATAAAACCACCACGTCGGACGTCGCCACCTCCGCGGAGTCACCTAGTGCAG”, the binding signal was 7070 fluorescence intensity (a.u.).

Regarding “TAAATCCTACGTGGATCATCTACCGCCCATTATTGTACCTCGGAGTCACCTAGTGCAG”, the binding signal was 14200 fluorescence intensity (a.u.).

Consider “CAGTTCCTGTCGTTCGGCTGCTCCGACGTGACGTTCGCGCCGGAGTCACCTAGTGCAG”, for which the binding signal is 4640 fluorescence intensity (a.u.).

As to “GGAAATGTGGTAGATGACTTGTACCATTTTCACATATTGCCGGAGTCACCTAGTGCAG”, the binding signal was 3590 fluorescence intensity (a.u.).

As for “ACAGGTGAATGGCAAGGCGCTAGAACCATTAGGTTGGCAACGGAGTCACCTAGTGCAG”, the binding signal is 3610 fluorescence intensity (a.u.).

As for “TACGAATTATGTAATTTGTTTTGTTATTAGTGTACATCTACGGAGTCACCTAGTGCAG”, the binding signal is 4070 fluorescence intensity (a.u.).

Turning to “CCTGGTTTTAATCTACGTGGCGGCTGAGTTAATGTGGGACCGGAGTCACCTAGTGCAG”, the binding signal was 13800 fluorescence intensity (a.u.).

For the sequence “ACGGTGTTGTGACGTGGAGTTGTGCGTGTACAACTTTACTCGGAGTCACCTAGTGCAG”, the binding signal is 14300 fluorescence intensity (a.u.).

Consider “TTGAATTGCCATTACAAGCAGAAACTGGGTAGCCCAGCAGCGGAGTCACCTAGTGCAG”, for which the binding signal is 14600 fluorescence intensity (a.u.).

Take “AGTGTGTGTATGACAGGTGGGACCAGATACTAATAGTGTACGGAGTCACCTAGTGCAG”: the binding signal was 3400 fluorescence intensity (a.u.).

For the sequence “AACTTCCTGGGGACCACCACCACCGGCGTCTGCGTCACCTCGGAGTCACCTAGTGCAG”, the binding signal was 3160 fluorescence intensity (a.u.).

Turning to “TTGACAATGGTTGGGGTGGTGGTGGTGTTCGCGGTGATGACGGAGTCACCTAGTGCAG”, the binding signal was 5330 fluorescence intensity (a.u.).

In the case of “CTGAACTTATTCAGATGATACGAACAGCGAGAAGCGTACGCGGAGTCACCTAGTGCAG”, the binding signal was 3400 fluorescence intensity (a.u.).

Regarding “GGTGGCGAGTGCGGGAGACGGTGGTTGACGCACGTGACAACGGAGTCACCTAGTGCAG”, the binding signal was 3210 fluorescence intensity (a.u.).

On to “AGAGCGAACGGCCGTCTGCCACGTCATTTTCGCCGCCCTCCGGAGTCACCTAGTGCAG”, for which the binding signal is 21500 fluorescence intensity (a.u.).

Turning to “GTCTGCCCAGAAGGTGGAGGAGATCAGGTCCAGGATCCGTCGGAGTCACCTAGTGCAG”, the binding signal is 3390 fluorescence intensity (a.u.).

For the sequence “GCCTCTCCTTGCTTGCGTGCTCACTGTCGCTGACTGCTCTCGGAGTCACCTAGTGCAG”, the binding signal was 4650 fluorescence intensity (a.u.).

With “CCAGTTTACGATTCTGACAGGCCCTTCCGTTTTGGGCACTCGGAGTCACCTAGTGCAG”, the binding signal was 3450 fluorescence intensity (a.u.).

Consider “GCTTCTGTACATCTGCAACCTGTGAGTACAATACAAGTGACGGAGTCACCTAGTGCAG”, for which the binding signal was 30300 fluorescence intensity (a.u.).

In the case of “CACCCGTGTTGTGGCACCAATAATGTTGGGCTTCTCTCCCCGGAGTCACCTAGTGCAG”, the binding signal is 3620 fluorescence intensity (a.u.).

Take “CGGTTGAGGGATGTGGCACAAACTCAATTTGTATAGTTAACGGAGTCACCTAGTGCAG”: the binding signal was 3160 fluorescence intensity (a.u.).

On to “TTATTACTCCTTGTCACAGTTTATAGGGTGTTCTTTTACACGGAGTCACCTAGTGCAG”, for which the binding signal is 3590 fluorescence intensity (a.u.).

“CAATCTTGATTGTTGGGCAGTTGGGCTTAGTTGATGTATGCGGAGTCACCTAGTGCAG”: the binding signal is 3470 fluorescence intensity (a.u.).

As for “CCTCGTCCGCCTTGGTCTTCTTCCAGCCGAGGAGCAACCGCGGAGTCACCTAGTGCAG”, the binding signal is 48200 fluorescence intensity (a.u.).

With “AGCTACATACGTACCTACGTTACGTTAATTTCTTGCTTGCCGGAGTCACCTAGTGCAG”, the binding signal was 3440 fluorescence intensity (a.u.).

For the sequence “GCAATCTCATGATTCATGCAGCTTTGTAGCAATGTGTGCTCGGAGTCACCTAGTGCAG”, the binding signal was 3140 fluorescence intensity (a.u.).

For the sequence “TCTCCTCTCCTCCAGCGAAGGACGGCGACGAACTCGACGACGGAGTCACCTAGTGCAG”, the binding signal is 14500 fluorescence intensity (a.u.).

On to “CTTTGTTTGCGCTGGTAGCCGCCGCCGTGACATGCGCTCACGGAGTCACCTAGTGCAG”, for which the binding signal was 37300 fluorescence intensity (a.u.).
